{"sequences": {"note": "Protein sequences, listed by entry. Tags and fused reporters are not part of them. Lines headed by an entry give the natural chain unless they say otherwise; changes in a name come on top.", "UniProt P41238": "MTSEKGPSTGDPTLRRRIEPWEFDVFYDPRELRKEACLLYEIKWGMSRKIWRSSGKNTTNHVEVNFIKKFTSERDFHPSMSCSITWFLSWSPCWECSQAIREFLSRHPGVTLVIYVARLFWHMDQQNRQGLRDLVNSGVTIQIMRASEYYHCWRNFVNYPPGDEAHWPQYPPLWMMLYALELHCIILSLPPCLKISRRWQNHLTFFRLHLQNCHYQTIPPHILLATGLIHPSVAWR"}, "source": "paper PMC7556403", "target": "MBP-APO1 WT (aggregated form) (human) (UniProt P41238)", "assay": "EMSA", "conditions": "Kd only plotted; 50 nM nucleic acid, 20 mM HEPES, 50 mM NaCl, 5 mM DTT, 10% glycerol (0.4 U RNase inhibitor for RNA), pH not stated for EMSA (HEPES pH 7.5 in protein buffers); recombinant protein; residues 1-236; protein details: MBP (N-terminal fusion, pMAL-C5X); label: 5' FAM; single-stranded DNA", "note": "The exact form of at least one protein or probe is not confirmed."}
{"sequence": "ATTATTATTATTCAAATTTATTTATTTATTTATGGTGTTTGGTGTGGTTG [FAM-50 ssDNA]", "values": [{"measurement": "binding result", "result": "binds"}]}
